Measurements reported in PubChem BioAssay AID1259254 (NCATS, 2017).
This is one part, drawn at random, of about 59,000 deposited reagents. About 1,550 of all reagents (2.6%) were called active. 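G2 share is only a proxy for re-replication; each gene was hit by three separate siRNAs, and active genes were retested.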 Entries without a mark were called inactive. The numbers tell different reagents against one gene apart. Further read-outs or replicates are left out here. No sequences are given here. The record does not give: the amount of reagent.

- Purpose: 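Genome-wide screen for genes that prevent DNA re-replication in cancer cells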 (primary screen)
- Cell system: human HCT116 colorectal cancer cells
- Reagent: single siRNA against human genes
- Duration: 3 days
- Measurement: 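Imaged Hoechst DNA stain sorts each cell into a cycle phase by DNA amount; per plate, G2 fraction set to 0% for non-targeting and 100% for GMNN siRNA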
- Scale: G2 robust z-score: higher = more G2 cells, more excess DNA replication
- Active means: 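Active siRNAs have a G2 robust z of 5 or more median absolute deviations over the median, which in these data means about 38% or higher of GMNN control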

G2 robust z-score, by target and reagent
LAPTM4B: #1 -0.579; #2 -0.999; #3 2.68
FLYWCH1: #1 -1.01; #2 -0.85; #3 -0.355
NYAP1: #1 -0.234; #2 -0.222; #3 -0.632
ENTPD4: #1 0.384; #2 -0.53; #3 0.301
PRKG2: #1 -0.932; #2 -1.27; #3 -0.553
TCIM: #1 1.73; #2 0.425; #3 -0.454
RBM25: #1 -0.627; #2 1.64; #3 0.277
KRTAP4-12: #1 -0.12; #2 -0.493; #3 0.285
TYRP1: #1 -0.979; #2 0.288; #3 0.201
SMIM10: #1 -0.847; #2 1.02; #3 0.614
PBDC1: #1 2.94; #2 -0.119; #3 -0.171
PSD4: #1 -1.11; #2 1; #3 5.74 (active)
EIF5: #1 1.49; #2 0.0445; #3 5.17 (active)
PLCG2: #1 2.38; #2 4.36; #3 0.0783
ANO5: #1 0.449; #2 -0.402; #3 0.16
WDR48: #1 -0.821; #2 0.158; #3 -1.17
GCC2: #1 2.13; #2 -0.375; #3 0.183
SIRAL1: #1 5.88 (active); #2 2.36; #3 0.209
KDM5D: #1 -0.555; #2 -0.18; #3 0.939
OTOGL: #1 -0.607; #2 -0.0162; #3 0.15
ARHGEF37: #1 0.174; #2 -0.307; #3 -0.862
C19orf44: #1 -0.48; #2 -1.23; #3 -0.832
VSIG10: #1 -0.515; #2 0.788; #3 0.102

4 entries from above, arranged by “G2 robust z-score”, lowest first.
target	siRNA no.	G2 robust z-score
PRKG2	2	-1.27
PRKG2	1	-0.932
PRKG2	3	-0.553
ENTPD4	3	0.301
